Data: PubChem BioAssay AID1856 (The Scripps Research Institute Molecular Screening Center, 2009)
In all, about 1,300 compounds went through this assay and fewer than 10 were called active. The rule behind the calls is not given here. This is a selection; strong and weak results do not stand in their true shares.

system: metallo-beta-lactamase IMP-1 (Pseudomonas aeruginosa); assay: IMP-1 metallo-beta-lactamase inhibitors, confirmation, selectivity assay for selective VIM-2 inhibitor project, biochemical, epi-absorbance readout, triplicate (AID 1856); settings: purified IMP-1, nitrocefin hydrolysis, epi-absorbance fluorescence; at 5.6 µM; stronger effect = higher value;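 note: 0% = enzyme with vehicle and 100% = vehicle without enzyme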

Question: How did the inhibition turn out when `Cc1cc(OCc2cc(C(=O)O)oc2C)c2c3c(c(=O)oc2c1)CCCC3` was run?
Answer: inactive: -1.08%

Question: Which inhibition does the source give for `Cc1cc(=O)oc2c(C)c(OCC(=O)N3CCN(Cc4ccc5c(c4)OCO5)CC3)ccc12` here?
Answer: inactive: -3.26%
